The series in a line: Open-label human taste assessment (Flavor Profile panel), bitterness. In kind it is in vivo. The note with it: 0.01 mg/5 mL, scale 0-3, listed as salt.

In the case of `CN1CCN(C(=O)O[C@H]2c3nccnc3C(=O)N2c2ccc(Cl)cn2)CC1` [L-malate, (S)-Zopiclone L-Malate], the “Human taste bitterness intensity” value (t = 15 minutes aftertaste) came out at 0.8 and the “Human taste bitterness intensity” value (t = 25 minutes aftertaste) is 0.2.

For the origin of these results see patent US8269005B2 (Sunovion Pharmaceuticals Inc., priority 2007, dated 2012).
